The exact form of at least one protein or probe is not confirmed.
How the values were obtained:
BcWRKY33A [1] = test: competition with a labelled probe; settings: 6% native gel, TGE buffer, pH and temperature not stated, recombinant protein
BcWRKY33A [2] = test: EMSA; settings: Beyotime GS009 chemiluminescent EMSA kit, 6% native gel, TGE buffer, pH and temperature not stated, recombinant protein, label: biotin

Sequence	binding result (BcWRKY33A [2])	other results
AGAAAATTCAACGGAGAAAATTCAACGGAGAAAATTCAACGG (double strand) [Competitor 2]		binding result (BcWRKY33A [1]; unlabeled competitor vs Probe 2, Beyotime GS009 chemiluminescent EMSA kit): binds
AGAAAATTCAACGGAGAAAATTCAACGGAGAAAATTCAACGG (double strand) [Probe 2 (pBcMYB51-3 W-box)]	binds	
ATGTTGACTAGTTATGTTGACTAGTT (double strand) [Competitor 1]		binding result (BcWRKY33A [1]; unlabeled competitor vs Probe 1, Beyotime GS009 chemiluminescent EMSA kit): binds
ATGTTGACTAGTTATGTTGACTAGTT (double strand) [Probe 1 (pBcMYB51-3 W-box)]	binds	

Source: paper PMC9331318
